61 compounds from PubChem BioAssay AID2685 (National Center for Advancing Translational Sciences (NCATS), 2010) can be followed below.

Some of the results follow. Shown are side measurements of this screen, not its main read-out; they come without a call. The list favours compounds with an active or inconclusive main result. Words in brackets tell the shape of the fitted curve; partial curves, single points and poor fits give uncertain potencies.

The test in a line: qHTS Assay for Lipid Storage Modulators in Drosophila S3 Cells.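 For cell number change: cells counted by Cell Tracker Red CMTPX staining in the red channel.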 The conditions noted are these: BODIPY lipid droplet fluorescence, 18-24 h; for cell number change: measured here: cell count max response, cells fed with added oleic acid. In outline:
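Drosophila S3 cells got compounds at several concentrations plus oleic acid (400 uM solution). Laser-scanning cytometry with 488 nm excitation read lipid droplets at 500-530 nm and cells at 575-640 nm. Percent activity was relative to 20 uM Triacsin C.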
Background: In qHTS, concentration-response curves come from the screen itself.

[1] abbreviates: measured here: cell number channel AC50, cells fed with added oleic acid.
Setting [2] is: measured here: lipid fluorescence (Fed channel) AC50, cells fed with added oleic acid.

One may read the AC50 as the concentration at which the activity in the assay is half-maximal. A low value points to activity at low concentration. On to `Cc1cc(C)c(C2C3=C(Nc4c2c(C)nn4-c2ccccn2)c2ccccc2C3=O)c(C)c1` (stereo not given), for which the cell number change came out at 38.6%. Moreover, the AC50 under setting [1] is 2.31 µM [rising, full curve]. For the same compound, under setting [2], the concentration at half-maximal activity (AC50) is 2.59 µM [rising, full curve]. With `Cc1c(Cl)ccc2c1NC(=O)[C@]21N[C@@H](Cc2ccccc2)[C@H]2C(=O)N(c3ccc(F)cc3)C(=O)[C@H]21`, the cell number change was -20.3%. For `COc1ccc(/C=C/c2nc3ccccc3c(=O)o2)cc1`, the cell number change is -5.93%. For the same compound, the AC50 under setting [2] is 6.51 µM [rising, full curve, poor fit]. As for `Brc1ccc2nc(CSc3ncn[nH]3)cn2c1`, the cell number change was -10.2%. Under setting [1], the AC50 was 1.3 µM [rising, full curve, poor fit].

On to `Brc1cccc(CN2CCN(c3ncccn3)CC2)c1`, for which, under setting [2], the AC50 is 29.1 µM [rising, single point].

`Cc1c(C)c2c(OCC(=O)NCCCO)cc3c(c2oc1=O)CCC(C)(C)O3`: the cell number change is 15.5%. On to `Cc1cc(Cl)c(OCCOCCN2CCCCC2)c(Br)c1`, for which the cell number change came to 5.88%. For the same compound, the half-maximal activity concentration (AC50) under setting [2] is 0.82 µM [falling, partial curve]. With `Cn1c(SCc2nc(-c3ccc(Br)cc3)no2)nnc1-c1ccco1`, the cell number change was -1.73%. Under setting [2], the half-maximal activity concentration (AC50) is 0.0731 µM [rising, full curve, poor fit].

For `CC(O)Cn1c(N2CCCC2)nc2c1c(=O)[nH]c(=O)n2C` (stereo not given), the cell number change is -0.293%. For the compound `COc1ccc2nc(-c3ccccc3)cc(C(=O)OCC(=O)N3CC(C)OC(C)C3)c2c1` (stereo not given), the cell number change was -18%. The AC50 under setting [2] was 23.1 µM [falling, partial curve]. `Cc1nn(-c2ccccc2)c2c1C(c1ccc(Br)s1)C(C#N)=C(N)O2` (stereo not given): the cell number change was -25.6%. For the compound `O=C(Cn1nc(-c2ccc(N3CCOCC3)c([N+](=O)[O-])c2)c2ccccc2c1=O)N1CCCCC1`, the cell number change amounted to 28.9%. The AC50 under setting [2] is 18.4 µM [rising, partial curve].

Consider `O=C(CN1CCS(=O)(=O)CC1)NNC(=O)C1CCCCC1`, for which the cell number change is -40.9%. The AC50 under setting [1] was 23.1 µM [falling, single point]. Take `Cc1cccc2cc(CN(CCCO)C(=O)Nc3cccc(Cl)c3)c(=O)[nH]c12`: the AC50 reads like this: under setting [1], 0.058 µM [rising, partial curve]; under setting [2], 5.17 µM [rising, full curve].

As for `Cc1ccc(/C(N)=N/OC(=O)Cc2cccs2)cc1`, the cell number change was -7.39%. The AC50 under setting [2] is 29.1 µM [falling, single point]. Regarding `Cc1ccc(C)c(-n2ccnc2SCC(=O)O)c1`, the cell number change was -8.85%. Moreover, under setting [1], the AC50 is 0.0116 µM [falling, full curve, poor fit]. For the same compound, the AC50 under setting [2] was 0.58 µM [falling, full curve]. With `CN(C)C1(CN=Cc2cc(Cl)cc([N+](=O)[O-])c2O)CCCCC1`, the cell number change is 12.8%. The half-maximal activity concentration (AC50) under setting [2] is 0.116 µM [falling, single point]. For the compound `CN(C)c1ccc(CNC(=O)CN(C)S(=O)(=O)c2cccc3cccnc23)cc1`, the cell number change is 1.3%. Also, the AC50 under setting [2] was 0.00411 µM [rising, full curve, poor fit]. For the compound `COc1ccc(OC)c(NC(=O)[C@@]2(CC(=O)O)CC(/C=C/c3ccccc3)=NO2)c1`, the cell number change is -2.24%. In addition, the half-maximal activity concentration (AC50) under setting [2] was 29.1 µM [falling, partial curve]. `N#CC1(c2ccccc2)CCCN1C(=O)c1ccco1` (stereo not given): the cell number change was -23.8%. Also, the AC50 under setting [2] is 29.1 µM [falling, single point]. As for `COc1cccc(NC(=O)CSc2nnc(-c3ccco3)c(-c3ccco3)n2)c1`, the cell number change turned out to be 7.98%. The same measure, in the same setting: the same measure for `CC1(C)CC(=O)C(C(C2=C(O)CC(C)(C)CC2=O)c2cccnc2)C(=O)C1` (stereo not given): -3.27%.

With `COc1cccc(CN(C)C(=O)CSc2nc3ccccc3[nH]2)c1OC`, the AC50 under setting [2] was 6.51 µM [rising, partial curve, poor fit]. `Cc1cccc(CCN(C(=O)c2csnn2)C(C(=O)NC2CCCC2)c2ccco2)c1` (stereo not given): the cell number change was -6.67%.

Take `O=C(Nc1cccnc1)C1CC(c2ccc(Cl)c(Cl)c2)=NO1` (stereo not given): under setting [2], the AC50 was 29.1 µM [rising, single point].

In the case of `CC(=O)N1C(C)(C)CC(=NOS(=O)(=O)c2ccccc2)CC1(C)C`, the cell number change is -45.2%. Moreover, the AC50 under setting [1] was 13 µM [falling, partial curve, poor fit]. In addition, the AC50 under setting [2] is 8.2 µM [falling, partial curve, poor fit]. Turning to `CCC(Oc1ccccc1F)C(=O)Nc1ccc2c(c1)n(C)c(=O)n2C` (stereo not given), the cell number change is -2.46%. `CC[n+]1cc(C)ccc1/C=C/c1ccc(N(C)C)cc1`: the cell number change is -94.3%. For the same compound, the AC50 under setting [1] was 6.51 µM [falling, full curve, poor fit]. In the case of `O=C(O)C/C(=C\c1cc(Cl)c2c(c1)OCO2)c1nc2ccccc2s1`, the cell number change was -8.97%. `O=C(Nc1cccc(Cl)c1)N(CCCN1CCOCC1)Cc1ccccc1F`: the cell number change was -19%. Besides, under setting [2], the AC50 is 29.1 µM [rising, single point]. Turning to `O=C(Nc1ccccc1[N+](=O)[O-])c1cc(S(=O)(=O)N2CCOCC2)cs1`, the cell number change was 4.25%. Under setting [2], the AC50 was 16.4 µM [falling, single point]. For the compound `Cc1ccc(NC(=O)CN2C(=O)NC(Cc3ccccc3)C2=O)cc1Cl` (stereo not given), the cell number change was -3.31%.

`CCCn1c(=O)c(C(=O)NNS(=O)(=O)c2ccc(Cl)cc2)c(O)c2ccccc21`: the cell number change is 12.6%. In addition, the AC50 under setting [1] is 3.26 µM [falling, single point]. In addition, the AC50 under setting [2] was 6.51 µM [falling, single point].

Regarding `COc1ccc(OCC(=O)N2CCN(C(=O)Cc3ccccc3)CC2)cc1`, the cell number change worked out at 34.7%. In addition, the AC50 under setting [2] was 18.4 µM [rising, single point]. As to `Cc1c(OC(C)C(=O)NCCN2CCOCC2)ccc2c3c(c(=O)oc12)CCC3` (stereo not given), the cell number change came to 3.58%. Under setting [2], the concentration at half-maximal activity (AC50) is 0.82 µM [rising, full curve, poor fit]. As for `O=C(NC(CC1CCCCC1)C(=O)O)c1ccccc1` (stereo not given), the cell number change was -13.5%. Further, the AC50 under setting [2] is 3.26 µM [rising, partial curve]. `COc1ccc(C2=NS(=O)(=O)N(C)C(C(=O)Nc3ccc(C)cc3)=C2)cc1`: the cell number change is 6.63%. Consider `Cc1nc2nc(CC(=O)O)[nH]n2c(=O)c1[N+](=O)[O-]`, for which the AC50 is, setting by setting: under setting [1], 4.11 µM [falling, single point]; under setting [2], 6.51 µM [falling, single point]. `CC1Cc2cc(/C(O)=C3\C(=O)C(=O)N(Cc4cccnc4)C3c3ccccc3F)ccc2O1` (stereo not given): the cell number change is 10.9%. The AC50 under setting [2] was 32.6 µM [rising, partial curve, poor fit]. Turning to `CC1(C)Cc2c(sc3nc4n(c(=N)c23)CCCCC4)CO1`, the cell number change is -50.4%. The AC50 under setting [1] is 5.17 µM [falling, full curve]. The AC50 under setting [2] was 0.82 µM [falling, full curve].

As to `Cc1ccccc1N1CCN(C(=O)C2CCCCC2)CC1`, the cell number change is -7.57%. Besides, the half-maximal activity concentration (AC50) under setting [2] is 4.11 µM [falling, partial curve].

On to `Fc1ccc(CSc2nncn2NCc2ccc3c(c2)OCO3)cc1`, for which the AC50 under setting [1] is 2.06 µM [rising, partial curve] and the AC50 under setting [2] was 1.84 µM [rising, partial curve]. Consider `COCCn1c(SCC(=O)NC2CCCC2)nnc1C(C)C`, for which the cell number change amounted to 16.2%. Further, the AC50 under setting [2] was 0.58 µM [falling, single point]. As for `CN(C)S(=O)(=O)c1ccc(C(=O)NCCOc2ccc(F)cc2)cc1`, under setting [2], the concentration at half-maximal activity (AC50) is 7.31 µM [falling, single point]. For `OC(COc1ccc(Cl)cc1)CN1CCCCC1` (stereo not given), the cell number change amounted to 9.73%. Moreover, the AC50 under setting [2] is 0.517 µM [falling, full curve]. In the case of `Cc1ccc(C(C(=O)NC2CCCCC2)N(Cc2ccco2)C(=O)C2COc3ccccc3O2)o1` (stereo not given), the cell number change is -13.1%. For the same compound, under setting [2], the AC50 was 29.1 µM [falling, single point]. On to `CN1/C(=C\C(=S)NC(=O)c2ccc([N+](=O)[O-])cc2)C(C)(C)c2ccccc21`, for which the cell number change is -22.5%. Moreover, the AC50 under setting [2] was 20.6 µM [falling, single point]. As to `CC1CCN(S(=O)(=O)c2ccc(NC(=O)CN3CCN(C)CC3)cc2)CC1`, the cell number change is -17.4%. Under setting [2], the AC50 is 4.61 µM [falling, full curve]. Take `Cc1ccc(Cn2nnc3c(=O)[nH]c(C4CCN(S(=O)(=O)c5ccc(C)cc5)CC4)nc32)cc1`: the cell number change came out at 163%. Besides, the AC50 under setting [1] is 16.4 µM [rising, partial curve]. With `COc1ccc(-c2nc(SC(CC(=O)NCCN3CCOCC3)c3cccs3)n[nH]2)cc1` (stereo not given), the cell number change was -13.8%. With `O=[N+]([O-])c1ccc(O)c(/C=N/n2c(CO)nc3ccccc32)c1`, the cell number change turned out to be 14.4%. Besides, the AC50 under setting [1] is 6.51 µM [falling, single point]. Consider `CN(C)S(=O)(=O)c1ccc2c(c1)/C(=C/c1cc3c([nH]1)CCCC3)C(=O)N2`, for which the half-maximal activity concentration (AC50) under setting [2] is 6.51 µM [falling, single point]. Regarding `Cc1cccc(N2C(=S)NC3c4cc(Cl)ccc4OC2(C)C3C(=O)N(C)C)c1` (stereo not given), the AC50 is 0.184 µM [rising, full curve, poor fit] under setting [1] and 0.58 µM [rising, single point] under setting [2].

As for `CCCn1c(=N)c(S(=O)(=O)c2ccc(F)cc2)cc2c(=O)n3ccccc3nc21`, the cell number change is -8.96%. Under setting [2], the AC50 is 6.51 µM [falling, single point]. For `CCOc1ccc(CN(C)c2ccc(S(=O)(=O)N3CCN(C)CC3)cc2[N+](=O)[O-])cc1OC`, the cell number change is -10.6%. For the same compound, under setting [2], the AC50 is 6.51 µM [falling, single point]. Take `CCOCc1cc(CN2CCCC(CNC(=O)c3ccco3)C2)ccc1OC` (stereo not given): the cell number change came to 4.72%. Further, the AC50 under setting [2] was 11.6 µM [rising, partial curve]. `COc1ccc(-c2nc(C)sc2C)cc1`: the cell number change is 28.9%. For the same compound, the AC50 under setting [2] was 8.2 µM [rising, partial curve]. Regarding `CSC1=NCCN1C(=O)COc1ccccc1`, the cell number change is -47.1%. Moreover, the AC50 under setting [1] was 25.9 µM [falling, single point]. For `Cn1nc(-c2ccccc2)c(CO)c1Oc1ccc(F)cc1`, the cell number change amounted to 2.6%. In addition, the AC50 under setting [1] was 0.184 µM [rising, full curve]. With `Cc1cccc(C(=O)OC(C)C(=O)N2CCN(Cc3ccccc3)CC2)c1` (stereo not given), the cell number change amounted to 217%. Moreover, under setting [1], the AC50 is 18.4 µM [rising, single point]. Besides, under setting [2], the AC50 is 23.1 µM [rising, partial curve]. In the case of `COc1ccc(C)cc1N1CC(C(=O)Nc2ccccc2N2CCCCC2)CC1=O` (stereo not given), the AC50 under setting [2] was 0.82 µM [falling, full curve].
